These are yes or no findings as the source states them, for the method shown. Binding can be weak; no strength is given.
Columns and labels:
Test in all cases: ELISA; solid-phase binding assay: catalytic domain or full-length proteins of MMP-9/MMP-2 coated at 8 ug/mL on 96-well plates; biotinylated R1R2 (20 ug/mL) added; bound peptide detected with anti-biotin antibodies, absorbance at 405 nm; both purified
[1] = molecular target: catalytic domain of MMP-2 (not stated (human and mouse proteins bought))
[2] = molecular target: catalytic domain of MMP-9 (not stated (human and mouse proteins bought))
[3] = molecular target: full-length protein of MMP-2 (not stated (human and mouse proteins bought)) (UniProt P08253)

By UniProt entry, the sequences of proteins in these tests, tags left out. Where a name states a change or a piece, a line headed by the entry shows the natural chain unless it says otherwise.
UniProt P08253: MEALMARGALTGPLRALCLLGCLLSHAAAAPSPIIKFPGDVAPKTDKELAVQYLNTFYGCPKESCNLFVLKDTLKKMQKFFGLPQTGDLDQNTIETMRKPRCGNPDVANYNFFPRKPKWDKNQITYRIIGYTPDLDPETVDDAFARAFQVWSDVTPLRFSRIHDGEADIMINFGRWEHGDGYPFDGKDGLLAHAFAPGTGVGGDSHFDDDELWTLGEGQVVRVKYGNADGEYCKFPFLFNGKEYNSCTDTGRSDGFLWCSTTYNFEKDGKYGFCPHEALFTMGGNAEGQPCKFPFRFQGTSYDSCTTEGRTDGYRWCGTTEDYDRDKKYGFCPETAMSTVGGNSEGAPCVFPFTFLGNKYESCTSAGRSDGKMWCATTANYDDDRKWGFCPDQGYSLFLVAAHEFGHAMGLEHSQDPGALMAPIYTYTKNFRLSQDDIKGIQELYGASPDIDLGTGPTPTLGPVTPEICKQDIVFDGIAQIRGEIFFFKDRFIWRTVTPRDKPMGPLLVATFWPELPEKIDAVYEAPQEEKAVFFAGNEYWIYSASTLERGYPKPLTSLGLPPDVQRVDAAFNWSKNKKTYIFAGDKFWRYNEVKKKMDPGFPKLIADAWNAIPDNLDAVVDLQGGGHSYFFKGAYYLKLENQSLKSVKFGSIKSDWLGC

Measured: binding

B1: biotinylated R1R2 (peptide)
peptide: GLNGENQKEPEQGERGEAGPPLSGLSGNNQGRPSLPGLNGENQKEPEQGERGEAGPP
modifications: biotin (position not given)
binds: all assays above
